Source: the supplement of paper PMC10849652
The list shows a part of the results.

By UniProt entry, the sequences of proteins in these tests, tags left out. Where a name states a change or a piece, a line headed by the entry shows the natural chain unless it says otherwise.
UniProt Q5T160: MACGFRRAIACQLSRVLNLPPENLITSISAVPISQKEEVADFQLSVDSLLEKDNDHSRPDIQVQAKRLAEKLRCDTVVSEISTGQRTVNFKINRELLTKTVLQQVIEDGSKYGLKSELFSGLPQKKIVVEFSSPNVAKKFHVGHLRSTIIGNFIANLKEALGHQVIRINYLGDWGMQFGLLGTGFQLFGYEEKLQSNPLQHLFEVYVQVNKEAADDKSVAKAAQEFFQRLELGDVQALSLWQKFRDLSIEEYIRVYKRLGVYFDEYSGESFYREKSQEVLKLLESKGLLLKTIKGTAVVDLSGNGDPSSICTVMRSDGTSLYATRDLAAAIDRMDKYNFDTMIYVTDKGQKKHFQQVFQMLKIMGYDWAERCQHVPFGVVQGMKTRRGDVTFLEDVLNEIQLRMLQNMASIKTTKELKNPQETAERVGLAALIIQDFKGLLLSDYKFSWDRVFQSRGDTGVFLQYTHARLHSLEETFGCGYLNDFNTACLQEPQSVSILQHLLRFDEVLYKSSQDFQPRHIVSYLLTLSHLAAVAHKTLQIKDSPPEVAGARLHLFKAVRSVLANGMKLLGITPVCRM
UniProt Q06609, whole entry, looked up: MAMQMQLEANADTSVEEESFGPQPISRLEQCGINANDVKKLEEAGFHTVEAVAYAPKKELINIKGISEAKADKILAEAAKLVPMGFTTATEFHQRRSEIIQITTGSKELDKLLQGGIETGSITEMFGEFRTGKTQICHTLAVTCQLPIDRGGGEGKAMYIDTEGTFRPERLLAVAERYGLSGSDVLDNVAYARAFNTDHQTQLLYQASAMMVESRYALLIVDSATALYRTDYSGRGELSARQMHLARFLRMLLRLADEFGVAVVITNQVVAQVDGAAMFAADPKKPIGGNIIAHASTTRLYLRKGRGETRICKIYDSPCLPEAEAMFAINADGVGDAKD
UniProt Q96PK6: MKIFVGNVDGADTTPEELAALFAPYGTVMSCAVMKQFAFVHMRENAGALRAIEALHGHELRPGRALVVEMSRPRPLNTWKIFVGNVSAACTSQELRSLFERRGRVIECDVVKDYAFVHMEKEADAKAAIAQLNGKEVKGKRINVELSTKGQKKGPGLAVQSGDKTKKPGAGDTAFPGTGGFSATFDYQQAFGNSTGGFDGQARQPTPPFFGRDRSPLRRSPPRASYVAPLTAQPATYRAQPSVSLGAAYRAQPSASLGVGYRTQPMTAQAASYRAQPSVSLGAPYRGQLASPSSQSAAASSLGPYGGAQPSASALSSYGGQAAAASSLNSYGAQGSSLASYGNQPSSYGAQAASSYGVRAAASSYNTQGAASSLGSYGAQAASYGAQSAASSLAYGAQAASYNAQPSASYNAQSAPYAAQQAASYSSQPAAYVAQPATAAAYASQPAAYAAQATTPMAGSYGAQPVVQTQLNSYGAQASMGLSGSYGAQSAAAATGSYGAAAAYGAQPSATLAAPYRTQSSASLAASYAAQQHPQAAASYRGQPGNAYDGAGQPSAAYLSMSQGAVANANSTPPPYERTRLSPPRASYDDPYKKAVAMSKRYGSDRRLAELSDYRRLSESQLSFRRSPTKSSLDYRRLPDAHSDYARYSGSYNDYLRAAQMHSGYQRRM
UniProt Q9NW64: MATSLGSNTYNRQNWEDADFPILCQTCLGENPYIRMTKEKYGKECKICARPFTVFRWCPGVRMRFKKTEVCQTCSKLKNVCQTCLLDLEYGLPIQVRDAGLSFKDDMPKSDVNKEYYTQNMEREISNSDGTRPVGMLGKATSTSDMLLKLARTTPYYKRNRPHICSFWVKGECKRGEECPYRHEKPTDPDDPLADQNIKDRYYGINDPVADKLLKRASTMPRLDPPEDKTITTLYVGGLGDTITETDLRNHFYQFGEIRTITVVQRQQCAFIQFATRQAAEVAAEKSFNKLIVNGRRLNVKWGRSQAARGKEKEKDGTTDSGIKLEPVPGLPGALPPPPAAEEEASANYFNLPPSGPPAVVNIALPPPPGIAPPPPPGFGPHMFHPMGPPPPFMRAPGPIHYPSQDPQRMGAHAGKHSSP
UniProt Q9P2N5: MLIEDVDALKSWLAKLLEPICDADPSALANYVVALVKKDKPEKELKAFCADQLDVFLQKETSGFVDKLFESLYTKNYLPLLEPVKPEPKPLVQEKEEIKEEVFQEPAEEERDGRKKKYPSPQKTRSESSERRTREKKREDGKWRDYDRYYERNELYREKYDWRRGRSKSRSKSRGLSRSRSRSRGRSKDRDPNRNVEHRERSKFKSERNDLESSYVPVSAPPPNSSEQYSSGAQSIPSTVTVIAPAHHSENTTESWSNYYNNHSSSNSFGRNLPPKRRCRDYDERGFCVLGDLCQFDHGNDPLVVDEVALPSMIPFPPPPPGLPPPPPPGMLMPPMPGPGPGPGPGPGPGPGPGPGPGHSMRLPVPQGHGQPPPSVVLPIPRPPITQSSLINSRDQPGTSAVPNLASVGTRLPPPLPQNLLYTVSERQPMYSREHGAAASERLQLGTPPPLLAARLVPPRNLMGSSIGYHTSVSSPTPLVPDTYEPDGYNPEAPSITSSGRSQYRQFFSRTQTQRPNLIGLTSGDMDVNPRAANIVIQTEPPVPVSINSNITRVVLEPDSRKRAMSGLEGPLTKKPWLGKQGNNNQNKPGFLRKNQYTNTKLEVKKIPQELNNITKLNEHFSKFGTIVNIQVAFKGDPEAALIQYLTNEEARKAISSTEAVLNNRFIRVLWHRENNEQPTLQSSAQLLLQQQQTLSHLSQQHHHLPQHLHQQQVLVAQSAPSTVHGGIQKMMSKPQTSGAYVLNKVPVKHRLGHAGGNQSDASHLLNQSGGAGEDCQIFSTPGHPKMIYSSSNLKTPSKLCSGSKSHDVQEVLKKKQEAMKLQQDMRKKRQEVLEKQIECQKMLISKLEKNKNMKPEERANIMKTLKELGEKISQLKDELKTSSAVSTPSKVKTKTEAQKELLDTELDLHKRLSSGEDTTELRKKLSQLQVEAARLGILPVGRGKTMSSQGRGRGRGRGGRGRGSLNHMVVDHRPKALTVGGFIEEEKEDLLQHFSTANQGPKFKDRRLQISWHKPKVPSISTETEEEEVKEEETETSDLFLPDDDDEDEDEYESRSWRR
UniProt Q96S21: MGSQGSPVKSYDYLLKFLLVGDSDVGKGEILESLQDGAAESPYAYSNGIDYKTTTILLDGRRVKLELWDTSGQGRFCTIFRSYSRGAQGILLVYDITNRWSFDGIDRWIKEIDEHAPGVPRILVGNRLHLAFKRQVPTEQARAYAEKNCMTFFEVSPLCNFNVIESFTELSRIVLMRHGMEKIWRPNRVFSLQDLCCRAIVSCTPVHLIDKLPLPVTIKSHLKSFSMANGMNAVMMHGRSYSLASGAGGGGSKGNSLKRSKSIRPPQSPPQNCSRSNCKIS
UniProt P49792, whole entry, looked up: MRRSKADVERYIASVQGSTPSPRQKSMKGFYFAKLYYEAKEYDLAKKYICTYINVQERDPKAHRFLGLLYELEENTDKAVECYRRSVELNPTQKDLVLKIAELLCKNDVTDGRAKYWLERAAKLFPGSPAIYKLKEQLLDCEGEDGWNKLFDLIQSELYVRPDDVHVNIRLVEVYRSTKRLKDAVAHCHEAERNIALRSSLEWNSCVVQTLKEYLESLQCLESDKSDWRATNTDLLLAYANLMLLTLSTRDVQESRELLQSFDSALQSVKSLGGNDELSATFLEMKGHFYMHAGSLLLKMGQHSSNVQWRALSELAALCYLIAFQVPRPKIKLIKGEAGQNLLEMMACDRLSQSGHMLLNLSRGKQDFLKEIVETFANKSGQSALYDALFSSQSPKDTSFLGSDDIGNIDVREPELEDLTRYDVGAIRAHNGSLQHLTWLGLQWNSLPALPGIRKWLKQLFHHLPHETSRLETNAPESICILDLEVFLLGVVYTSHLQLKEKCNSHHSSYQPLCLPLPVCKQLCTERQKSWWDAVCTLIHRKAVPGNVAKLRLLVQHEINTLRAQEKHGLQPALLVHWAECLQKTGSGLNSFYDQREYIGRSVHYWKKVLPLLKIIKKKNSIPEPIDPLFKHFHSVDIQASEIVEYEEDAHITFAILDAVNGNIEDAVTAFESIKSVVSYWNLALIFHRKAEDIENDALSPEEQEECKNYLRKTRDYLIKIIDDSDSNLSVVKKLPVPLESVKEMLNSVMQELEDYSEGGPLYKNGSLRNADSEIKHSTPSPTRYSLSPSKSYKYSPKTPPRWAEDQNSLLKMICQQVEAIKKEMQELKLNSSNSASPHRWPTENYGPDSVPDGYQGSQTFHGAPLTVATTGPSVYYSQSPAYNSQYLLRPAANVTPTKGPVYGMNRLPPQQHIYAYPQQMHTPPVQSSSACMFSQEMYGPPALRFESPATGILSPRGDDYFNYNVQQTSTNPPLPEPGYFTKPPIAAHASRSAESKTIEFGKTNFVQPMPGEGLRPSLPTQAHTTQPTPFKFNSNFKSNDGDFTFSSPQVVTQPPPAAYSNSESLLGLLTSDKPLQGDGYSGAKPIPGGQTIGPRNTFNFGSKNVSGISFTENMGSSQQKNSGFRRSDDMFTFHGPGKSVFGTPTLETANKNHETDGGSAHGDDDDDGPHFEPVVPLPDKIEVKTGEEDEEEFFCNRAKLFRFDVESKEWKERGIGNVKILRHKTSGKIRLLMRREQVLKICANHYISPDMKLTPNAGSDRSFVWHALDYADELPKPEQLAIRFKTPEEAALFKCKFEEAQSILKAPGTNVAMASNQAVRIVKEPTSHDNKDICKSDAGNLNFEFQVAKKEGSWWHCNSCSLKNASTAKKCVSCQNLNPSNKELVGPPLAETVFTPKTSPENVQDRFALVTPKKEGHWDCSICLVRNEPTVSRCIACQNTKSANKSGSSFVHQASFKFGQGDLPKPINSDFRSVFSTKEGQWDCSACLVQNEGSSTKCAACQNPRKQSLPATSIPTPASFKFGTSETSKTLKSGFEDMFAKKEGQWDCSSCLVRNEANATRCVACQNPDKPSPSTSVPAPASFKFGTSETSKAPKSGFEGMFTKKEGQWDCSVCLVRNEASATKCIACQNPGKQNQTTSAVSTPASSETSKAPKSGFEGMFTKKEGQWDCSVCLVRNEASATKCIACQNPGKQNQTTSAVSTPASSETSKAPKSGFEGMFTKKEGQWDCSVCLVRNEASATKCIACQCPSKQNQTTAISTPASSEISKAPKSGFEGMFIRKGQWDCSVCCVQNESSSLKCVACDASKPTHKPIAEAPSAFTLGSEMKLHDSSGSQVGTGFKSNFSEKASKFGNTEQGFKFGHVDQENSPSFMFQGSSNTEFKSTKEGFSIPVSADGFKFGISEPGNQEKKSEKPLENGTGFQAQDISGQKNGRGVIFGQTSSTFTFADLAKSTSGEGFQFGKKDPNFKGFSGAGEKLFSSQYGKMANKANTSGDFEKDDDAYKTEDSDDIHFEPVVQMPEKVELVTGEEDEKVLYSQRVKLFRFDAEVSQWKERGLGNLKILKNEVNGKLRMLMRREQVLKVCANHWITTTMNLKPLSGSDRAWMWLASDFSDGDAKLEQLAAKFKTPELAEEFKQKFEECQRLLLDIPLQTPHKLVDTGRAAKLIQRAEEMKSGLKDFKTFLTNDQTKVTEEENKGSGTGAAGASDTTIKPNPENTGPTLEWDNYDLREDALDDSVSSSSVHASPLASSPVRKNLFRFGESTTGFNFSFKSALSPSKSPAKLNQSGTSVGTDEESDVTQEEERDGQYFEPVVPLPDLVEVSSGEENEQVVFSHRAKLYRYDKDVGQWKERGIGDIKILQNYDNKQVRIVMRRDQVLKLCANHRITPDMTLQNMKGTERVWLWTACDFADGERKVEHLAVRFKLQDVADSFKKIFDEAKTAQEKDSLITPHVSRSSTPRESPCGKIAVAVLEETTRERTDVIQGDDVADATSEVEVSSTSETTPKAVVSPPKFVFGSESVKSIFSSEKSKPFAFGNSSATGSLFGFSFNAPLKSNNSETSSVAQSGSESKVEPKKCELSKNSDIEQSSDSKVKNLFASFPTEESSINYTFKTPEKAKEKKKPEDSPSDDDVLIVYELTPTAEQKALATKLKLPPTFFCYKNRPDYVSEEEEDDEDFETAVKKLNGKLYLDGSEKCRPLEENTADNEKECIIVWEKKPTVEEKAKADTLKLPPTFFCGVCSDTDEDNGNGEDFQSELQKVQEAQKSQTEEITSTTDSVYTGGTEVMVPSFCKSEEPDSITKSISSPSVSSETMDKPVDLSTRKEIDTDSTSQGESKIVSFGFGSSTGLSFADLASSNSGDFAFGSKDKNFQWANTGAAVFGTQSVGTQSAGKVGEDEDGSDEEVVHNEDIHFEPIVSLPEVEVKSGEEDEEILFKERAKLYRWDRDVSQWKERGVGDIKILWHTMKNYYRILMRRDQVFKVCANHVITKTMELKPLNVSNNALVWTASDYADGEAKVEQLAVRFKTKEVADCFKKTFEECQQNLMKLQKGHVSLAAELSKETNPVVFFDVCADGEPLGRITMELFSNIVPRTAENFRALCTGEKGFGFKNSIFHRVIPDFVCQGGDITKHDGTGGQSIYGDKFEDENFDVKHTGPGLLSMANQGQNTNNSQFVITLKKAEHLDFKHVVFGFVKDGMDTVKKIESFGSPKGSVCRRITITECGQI

The targets below were run with CN1CCN(CCOc2cc(OC3CCOCC3)c3c(Nc4c(Cl)ccc5c4OCO5)ncnc3c2)CC1 [saracatinib] (assay: log2 fold change, soluble protein after heating vs DMSO (PISA); higher = thermal stabilisation; K562 cells, 10 uM, 30 min; active = over 0.2 and 3.5 SD of the protein, either way, in both replicates (recomputed)).
How it was run: (§1)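 K562 cells (2×10^6 cells/mL) were treated with 10 μM compound for 30 min, and aliquots were heated for 3 min over 48°C-58°C. Pooled aliquots were extracted in PBS with 0.5% NP-40 at 4°C, and the supernatant after 21,000xg for 90 min was measured by TMTpro 16plex LC-MS/MS with channel sums equalised. Reported thermal stability, relative to control samples and from duplicates, is a log2 fold change.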
In the case of RB1CC1 (UniProt Q8TDY2), the log2 fold change is reported as inactive: -0.065.
RARS2 (UniProt Q5T160) was tested, and the log2 fold change was inactive: 0.005.
RAD51 (UniProt Q06609) was tested, and the log2 fold change was inactive: -0.013.
RBM14 (UniProt Q96PK6) was tested, and the log2 fold change was inactive: 0.039.
With RAVER1 (UniProt E9PAU2) the log2 fold change was inactive: -0.086.
In the case of RALA (UniProt P11233), the log2 fold change is reported as active: 0.203.
For RABGAP1L isoform 5 (UniProt Q5R372), the log2 fold change was inactive: -0.027.
RAB9A (UniProt P51151) was tested, and the log2 fold change was inactive: 0.015.
In the case of RBBP7 (UniProt Q16576), the log2 fold change is reported as inactive: 0.048.
For RAC1 (UniProt P63000), the log2 fold change was inactive: 0.097.
For R3HDM4 (UniProt Q96D70), the log2 fold change was inactive: 0.095.

These targets were tested with CN1CCN(c2nc(C3=C(c4c[nH]c5ccccc45)C(=O)NC3=O)c3ccccc3n2)CC1 [sotrastaurin] in the same assay as above.
How it was run: as §1
With RBM22 (UniProt Q9NW64) the log2 fold change was inactive: -0.013.
With RBM12 (UniProt Q9NTZ6) the log2 fold change was inactive: -0.12.
In the case of RBM27 (UniProt Q9P2N5), the log2 fold change is reported as inactive: -0.039.
For RAF1 isoform 2 (UniProt P04049), the log2 fold change was inactive: -0.167.
RAD50, A0A494C0Y7 was tested, and the log2 fold change was inactive: 0.048.
In the case of RABGAP1L isoform 3 (UniProt Q5R372), the log2 fold change is reported as inactive: -0.042.
For RAB40C (UniProt Q96S21), the log2 fold change was inactive: 0.102.
For RABGGTA (UniProt Q92696), the log2 fold change was inactive: 0.102.
For RARS (UniProt P54136), the log2 fold change was inactive: -0.192.
RANBP2 (UniProt P49792) was tested, and the log2 fold change was inactive: -0.06.
In the case of RAPGEF4 (UniProt Q8WZA2), the log2 fold change is reported as inactive: -0.033.
In the case of RAD50 isoform 2 (UniProt Q92878), the log2 fold change is reported as inactive: -0.024.
